No constants are given. Whether binding was seen depends on the method and setting. Some entries that bind do so weakly or less than the wild type. Where a sequence is shown, tags or fusion partners need not be part of it.

The target of this assay is T1, Yjef-N-GST (Edc3 fragment) (S. cerevisiae) (UniProt P39998).
T1 sequence: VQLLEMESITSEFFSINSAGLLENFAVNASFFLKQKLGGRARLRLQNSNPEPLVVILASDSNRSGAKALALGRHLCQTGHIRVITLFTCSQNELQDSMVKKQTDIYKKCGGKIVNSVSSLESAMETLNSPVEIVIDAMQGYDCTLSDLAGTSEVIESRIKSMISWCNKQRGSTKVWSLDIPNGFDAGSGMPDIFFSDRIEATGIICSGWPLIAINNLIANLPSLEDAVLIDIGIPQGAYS
Kind of assay: pull-down.

B1: His-Sbp1-FLAG (protein, UniProt P10080 1-294)
chain: MSAEIEEATNAVNNLSINDSEQQPRAPTHKTVIDPEDTIFIGNVAHECTEDDLKQLFVEEFGDEVSVEIPIKEHTDGHIPASKHALVKFPTKIDFDNIKENYDTKVVKDREIHIKRARTPGQMQRGGFRGRGGFRGRGGFRGGFRGGYRGGFRGRGNFRGRGGARGGFNGQKREKIPLDQMERSKDTLYINNVPFKATKEEVAEFFGTDADSISLPMRKMRDQHTGRIFTSDSANRGMAFVTFSGENVDIEAKAEEFKGKVFGDRELTVDVAVIRPENDEEEIEQETGSEEKQE
As for B1, the binding entry is reported as “binds”.

The record behind these values is doi:10.1101/2021.02.23.432385.
